Experimental data reported in PMC8287682.
Results are given in words; binding and its absence hold for the method and conditions named. Binding seen in cells or lysates may run through a third protein. Binding calls can cover weak binding; strength is not graded here. Tags and fused reporters may be left off the sequences shown. One block for each molecule: values may come before it.

Columns and labels:
CMTM7-myc (human) = molecular target: T1, CMTM7-myc (human) (UniProt Q96FZ5); test: co-IP; anti-myc antibody and protein-G Sepharose; lysates of control and CMTM7-myc-overexpressing HeLa cells, lysed 48 h after transfection; 20 mM Tris-HCl pH 8.0, 150 mM NaCl, 2 mM EDTA, 10% glycerol, 0.5% Nonidet P-40, 4 °C; Western blot
T1 sequence: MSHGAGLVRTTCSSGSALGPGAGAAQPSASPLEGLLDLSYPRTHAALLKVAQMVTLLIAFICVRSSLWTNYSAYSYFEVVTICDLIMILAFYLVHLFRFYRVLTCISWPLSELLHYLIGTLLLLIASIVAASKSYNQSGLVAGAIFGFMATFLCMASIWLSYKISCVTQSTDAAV

[1] = molecular target: Rab5 (human (endogenous in HeLa)); test: co-IP; anti-Rab5 antibody and protein-G Sepharose; lysates of control and CMTM7-myc-overexpressing HeLa cells, lysed 48 h after transfection; 20 mM Tris-HCl pH 8.0, 150 mM NaCl, 2 mM EDTA, 10% glycerol, 0.5% Nonidet P-40, 4 °C; Western blot

- binding (CMTM7-myc (human)): binds
Molecule: Rab5 (human (endogenous in HeLa))

- binding [1]: binds
B1: CMTM7-myc (protein, UniProt Q96FZ5 1-175)
chain: T1 sequence
